Data reported in publication PMC5011436.
These are yes or no findings as the source states them, for the method shown. In cells and extracts the contact can be indirect. Some entries that bind do so weakly or less than the wild type. Tags and fused reporters may be left off the sequences shown.

Sequences of proteins named here, by UniProt entry; tags and fusion partners are left off.
UniProt P42656: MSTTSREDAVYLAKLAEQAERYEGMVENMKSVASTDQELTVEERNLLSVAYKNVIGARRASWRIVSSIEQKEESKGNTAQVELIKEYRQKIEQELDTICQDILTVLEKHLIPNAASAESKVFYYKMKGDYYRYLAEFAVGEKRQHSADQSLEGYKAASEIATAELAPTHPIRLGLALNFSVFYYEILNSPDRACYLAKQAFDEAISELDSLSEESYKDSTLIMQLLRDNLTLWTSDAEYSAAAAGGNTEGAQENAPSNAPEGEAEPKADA

What was measured:
GST-Rad24 (S. pombe) [1] = target: GST-Rad24 (S. pombe) (UniProt P42656); experiment: condition: only extract of orb6-as2 cells treated with 50 μM 1-NA-PP1 (Orb6-as2 kinase inhibited); pull-down; as a1, but extract of orb6-as2 cells incubated with 50 μM 1-NA-PP1 for 15 min at 32°C (Orb6-as2 kinase inhibited); only the target purified
GST-Rad24 (S. pombe) [2] = target: GST-Rad24 (S. pombe) (UniProt P42656); experiment: pull-down; GST or GST-Rad24 on glutathione sepharose or magnetic beads, mixed with fission yeast protein extract of Sts5-HA strains overnight at 4°C; washed with TRIS lysis buffer (50 mM TrisCl pH 7.7, 150 mM NaCl, 5 mM EDTA, 5% glycerol, 1% Triton X); anti-HA western blot; extracts of untreated cells, of orb6-as2 cells with DMSO and of orb6+ cells with DMSO or 50 μM 1-NA-PP1; only the target purified

binding (GST-Rad24 (S. pombe) [1]): no binding
binding (GST-Rad24 (S. pombe) [2]): binds
B1: Sts5-HA (protein, UniProt O74454 1-1066)
chain: MDEEFENDFPYKVMLNQQQDPSDAQSSPTFVPSANPSLTTPWLQTTPSANRPTWLPLQQHMHQLRHTGLLPAVESSFVHGHRRSASAGVGMGNFSNQATIPSNSPAVSNMQPPTQGGQPLYPTNFFTTSVSASSDSFPNSPTVPSKFSLNPSVATSTNISPRRHAKSHSVASVSSPNSHNAVPFTPHAFVPPVNNASPLPALNTLPQLLRPRNLDAQWRPSSLSQTNSPTHAANPSFPGTIVTHNTSNFRPEGGGHRHRRSTGSLSVGSSGSGFSSGGSGNPRKNLFSPYLPQSSIPALLAERRLVTGILIVSKKNRSDAFVSVDGLDAEVFICGSKDRNRALEGDVVAIELLDVDEVWAGKLEKEENRRRKDPISTRGSFDNLRIDAVPFEVPQRSAIKARDDEQVEGQTLFLLDQKQLGADEKPKYAGHVVAVLQRAPGQVFSGTLGILRPSSAANKERQTSSGNQGSSNNSGNDKPKIVWFKPSDKRVPLIAIPTEQAPTDFLGNDQAYAQRLFLASIKRWPVTSLHPFGMLVGELGSMDSMSAQVSALLHDTGVHSEPWEGSAATSAVTALNALSDNFLNVAGCADYRSEDVFLFVKNDVSKAAVSEVKQHESNINSSSATDFVSSAFHIRPTSTGYHVGIHVTDVSRVIEPGSPLDRELQRRSIAVNLCQKSVPLFPTTLGEALSLREDKDCYTMSLLLDVSSTGKIRGTWIGWAVIRPRKAYTMKEADELLQTDARLRLFHTVSSRLRTHHLGTDVPLSRYCRLVRRWDEESCSFDPNETNLFISSAVEVLRETLLDAANRAVASHLRQEFRENAFLRTQRLPSRENCRILQSMAIQMGCVLDLSSTKSLLRSLSLIEDDTVRNILQLYYYKVTPRAVYEMQKYKGNLASQMMSLGIEDESDDLTHFTAPLERYGDIVVHYQLQLLLRGELASEKRLRVWSQAANDASRRLVISKFAQETSIHIKIFSDWAESQVWQDGLVCFVAPSYFDVFFPSLGMEKRVHLDLLNLTHVRFEEDQGILSLYDESGAVTVVKLLTSVKVKLFVQLSTPPLINVSNVEF
